Test results from PMC8754431.

Protein sequences, listed by entry. Tags and fused reporters are not part of them. Lines headed by an entry give the natural chain unless they say otherwise; changes in a name come on top.
UniProt A8JFR3: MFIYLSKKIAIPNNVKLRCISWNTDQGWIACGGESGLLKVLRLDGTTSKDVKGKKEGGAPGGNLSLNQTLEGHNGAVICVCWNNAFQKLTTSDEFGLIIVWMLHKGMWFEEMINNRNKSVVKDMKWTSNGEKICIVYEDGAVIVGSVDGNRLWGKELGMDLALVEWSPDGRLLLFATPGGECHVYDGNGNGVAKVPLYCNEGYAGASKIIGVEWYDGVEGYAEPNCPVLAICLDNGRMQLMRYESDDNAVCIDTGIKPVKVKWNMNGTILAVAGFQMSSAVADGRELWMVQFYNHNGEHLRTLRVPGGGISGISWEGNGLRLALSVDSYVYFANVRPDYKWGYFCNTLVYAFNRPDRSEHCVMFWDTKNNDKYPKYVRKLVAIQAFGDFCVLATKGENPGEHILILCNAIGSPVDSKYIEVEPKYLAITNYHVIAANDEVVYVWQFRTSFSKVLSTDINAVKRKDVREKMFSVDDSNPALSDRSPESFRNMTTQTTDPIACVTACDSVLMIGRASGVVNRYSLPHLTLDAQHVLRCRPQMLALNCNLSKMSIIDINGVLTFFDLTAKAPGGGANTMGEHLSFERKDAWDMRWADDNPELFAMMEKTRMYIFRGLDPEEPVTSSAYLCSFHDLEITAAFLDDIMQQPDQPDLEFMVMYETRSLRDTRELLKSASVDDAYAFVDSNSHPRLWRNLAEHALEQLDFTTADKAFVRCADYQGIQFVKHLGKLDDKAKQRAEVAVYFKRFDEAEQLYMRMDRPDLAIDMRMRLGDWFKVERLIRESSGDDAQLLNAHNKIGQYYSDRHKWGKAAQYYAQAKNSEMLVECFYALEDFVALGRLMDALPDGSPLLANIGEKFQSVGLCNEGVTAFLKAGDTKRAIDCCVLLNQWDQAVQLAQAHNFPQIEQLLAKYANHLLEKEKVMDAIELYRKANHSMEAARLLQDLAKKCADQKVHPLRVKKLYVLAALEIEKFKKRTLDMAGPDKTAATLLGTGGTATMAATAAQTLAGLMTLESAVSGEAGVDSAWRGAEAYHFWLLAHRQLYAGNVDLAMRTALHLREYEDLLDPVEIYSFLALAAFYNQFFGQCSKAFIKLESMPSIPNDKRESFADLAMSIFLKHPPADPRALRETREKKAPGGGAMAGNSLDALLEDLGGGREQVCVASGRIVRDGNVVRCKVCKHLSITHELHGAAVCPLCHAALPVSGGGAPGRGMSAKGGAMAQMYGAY

Legend:
[1] = target: T1, C. reinhardtii His-IFT43 (from insect cells) (C. reinhardtii) (UniProt A8HYP5); experiment: SEC; His-IFT43, IFT121 and IFT139 co-expressed in sf21 cells by co-infection with two baculoviruses; purified by Ni-NTA affinity, ion exchange and SEC
T1 sequence: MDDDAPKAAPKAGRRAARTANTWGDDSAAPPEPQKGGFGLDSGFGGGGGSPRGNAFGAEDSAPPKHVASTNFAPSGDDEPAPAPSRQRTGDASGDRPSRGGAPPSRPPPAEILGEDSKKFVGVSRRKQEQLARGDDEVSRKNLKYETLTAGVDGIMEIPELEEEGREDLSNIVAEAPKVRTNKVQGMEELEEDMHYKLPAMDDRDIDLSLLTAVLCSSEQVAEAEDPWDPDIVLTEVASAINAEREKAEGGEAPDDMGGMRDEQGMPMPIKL

[2] = target: T2, C. reinhardtii His-GFP-IFT43 (from mammalian cells) (C. reinhardtii) (UniProt A8HYP5); experiment: SEC; His-GFP-IFT43, IFT121 and IFT139 co-expressed in HEK293S; purified by the His-tag on IFT43 (TALON), Q ion exchange, then Superose 6 Increase in 10 mM HEPES pH 7.5, 150 mM NaCl, 2 mM MgCl2, 1 mM DTT, 5% glycerol; peak fractions by SDS-PAGE
T2 sequence: T1 sequence

binding [1]	binding [2]	Substance
binds	–	C. reinhardtii IFT121 (from insect cells) (from UniProt A8JFR3)
–	binds	C. reinhardtii IFT121 (from mammalian cells) (from UniProt A8JFR3)

Results are given in words; binding and its absence hold for the method and conditions named. A result given as binding can be weak or reduced; the word gives no strength. Tags and fused reporters may be left off the sequences shown.
